Results are given in words; binding and its absence hold for the method and conditions named. In cells and extracts the contact can be indirect. A yes stands for co-enrichment or nearness to the bait. Other partners may have been found. No binding means not detected with the bait.
How the values were obtained:
[1] = biological target: StrepII-Flag (SF)-tagged CENP-A (Drosophila melanogaster) (UniProt Q9V6Q2); assay: affinity purification with mass spectrometry; tandem purification by streptactin-agarose followed by α-Flag magnetic beads (SF-TAP); low salt nuclear extract of S2 cells stably expressing SF-CENP-A, nontransfected S2 cells as control; eluates analysed by MS
[2] = biological target: EGFP-tagged CENP-A (Drosophila melanogaster) (UniProt Q9V6Q2); assay: affinity purification with mass spectrometry; α-GFP sepharose beads; low salt nuclear extract of S2 cells stably expressing EGFP-CENP-A, nontransfected S2 cells as control; eluates analysed by MS
[3] = biological target: SF-CG2051/Hat1 (S2 cells) (Drosophila melanogaster) (UniProt Q0KIB3); assay: affinity purification with mass spectrometry; large-scale immunopurification of Flag-CG2051/Hat1 (SF-CG2051) from S2 cells; purified proteins analysed by MS

Chains of the proteins cited; added tags and fusions are not shown. Lines headed by an entry give the natural chain unless they say otherwise; changes in a name come on top.
UniProt Q9V6Q2: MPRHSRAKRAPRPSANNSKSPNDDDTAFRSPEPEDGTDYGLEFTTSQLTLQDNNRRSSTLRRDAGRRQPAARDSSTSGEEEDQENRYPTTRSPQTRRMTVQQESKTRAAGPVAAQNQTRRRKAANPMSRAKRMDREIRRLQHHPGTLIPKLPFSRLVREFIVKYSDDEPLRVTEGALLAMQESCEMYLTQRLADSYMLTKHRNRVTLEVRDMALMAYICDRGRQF
UniProt Q0KIB3: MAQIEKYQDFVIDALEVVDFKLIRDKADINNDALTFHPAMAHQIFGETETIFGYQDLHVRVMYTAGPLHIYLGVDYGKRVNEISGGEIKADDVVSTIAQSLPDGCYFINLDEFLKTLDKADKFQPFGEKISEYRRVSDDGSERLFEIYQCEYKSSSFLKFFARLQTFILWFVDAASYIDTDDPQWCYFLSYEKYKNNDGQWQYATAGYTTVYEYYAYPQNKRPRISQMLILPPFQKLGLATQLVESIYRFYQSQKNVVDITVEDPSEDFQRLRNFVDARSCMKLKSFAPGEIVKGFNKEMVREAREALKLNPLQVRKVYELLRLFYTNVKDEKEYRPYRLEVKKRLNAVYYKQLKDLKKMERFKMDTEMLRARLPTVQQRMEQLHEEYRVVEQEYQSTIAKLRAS
UniProt Q8IRG6: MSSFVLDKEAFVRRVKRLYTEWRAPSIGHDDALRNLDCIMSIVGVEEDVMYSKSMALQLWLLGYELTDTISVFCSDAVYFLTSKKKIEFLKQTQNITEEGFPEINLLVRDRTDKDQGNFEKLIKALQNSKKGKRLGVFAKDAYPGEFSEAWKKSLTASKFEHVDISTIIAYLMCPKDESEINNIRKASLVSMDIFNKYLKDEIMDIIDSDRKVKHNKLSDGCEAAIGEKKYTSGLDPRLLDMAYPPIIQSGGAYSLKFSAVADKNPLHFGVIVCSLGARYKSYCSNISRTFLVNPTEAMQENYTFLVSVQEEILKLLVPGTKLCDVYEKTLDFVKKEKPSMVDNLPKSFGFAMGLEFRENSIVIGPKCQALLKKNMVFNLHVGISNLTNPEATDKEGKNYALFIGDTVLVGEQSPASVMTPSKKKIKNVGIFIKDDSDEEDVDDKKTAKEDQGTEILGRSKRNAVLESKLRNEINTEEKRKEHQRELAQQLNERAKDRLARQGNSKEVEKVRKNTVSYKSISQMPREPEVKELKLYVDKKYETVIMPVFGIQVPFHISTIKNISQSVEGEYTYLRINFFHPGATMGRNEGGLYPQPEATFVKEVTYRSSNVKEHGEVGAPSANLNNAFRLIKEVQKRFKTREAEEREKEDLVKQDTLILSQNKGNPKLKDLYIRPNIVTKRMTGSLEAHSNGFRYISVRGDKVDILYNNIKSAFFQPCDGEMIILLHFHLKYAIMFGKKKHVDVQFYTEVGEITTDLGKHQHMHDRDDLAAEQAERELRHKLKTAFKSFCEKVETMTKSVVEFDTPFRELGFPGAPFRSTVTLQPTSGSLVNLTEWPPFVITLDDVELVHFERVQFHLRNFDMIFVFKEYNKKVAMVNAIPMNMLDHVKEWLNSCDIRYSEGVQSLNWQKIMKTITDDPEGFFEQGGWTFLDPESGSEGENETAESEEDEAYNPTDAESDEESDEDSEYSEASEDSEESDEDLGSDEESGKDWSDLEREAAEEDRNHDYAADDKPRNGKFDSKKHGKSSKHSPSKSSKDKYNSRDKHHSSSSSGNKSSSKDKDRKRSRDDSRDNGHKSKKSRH
UniProt Q24572: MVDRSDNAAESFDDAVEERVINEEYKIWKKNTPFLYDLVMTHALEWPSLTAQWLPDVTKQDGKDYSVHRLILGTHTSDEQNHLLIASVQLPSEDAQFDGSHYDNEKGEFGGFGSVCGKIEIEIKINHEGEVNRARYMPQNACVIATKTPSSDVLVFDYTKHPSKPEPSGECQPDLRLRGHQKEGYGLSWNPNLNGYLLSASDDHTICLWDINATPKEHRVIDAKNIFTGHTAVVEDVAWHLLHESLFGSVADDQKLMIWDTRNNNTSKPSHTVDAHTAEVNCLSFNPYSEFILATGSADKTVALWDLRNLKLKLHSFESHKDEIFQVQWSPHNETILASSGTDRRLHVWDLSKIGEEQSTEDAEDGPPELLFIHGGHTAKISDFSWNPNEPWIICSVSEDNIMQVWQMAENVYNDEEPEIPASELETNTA

With “FACT subunit Dre4, endogenous (from UniProt Q8IRG6 1-1083)” the binding [1] was “binds”, the binding [2] was “binds” and the binding [3] was “no binding”.

“CENP-A/Cid (endogenous) (from UniProt Q9V6Q2 1-225)” was tested, and the binding [3] was “binds”.

“Caf1 (Rbap46/48), endogenous (from UniProt Q24572 1-430)” was tested, and the binding [1] was “binds”, the binding [2] was “binds” and the binding [3] was “binds”.

For “CG2051 (Hat1), endogenous (from UniProt Q0KIB3) (enzyme)”, the binding [1] was “binds” and the binding [2] was “binds”.

B1: FACT subunit Ssrp, endogenous (protein, UniProt Q05344 1-723)
chain: MTDSLEYNDINAEVRGVLCSGRLKMTEQNIIFKNTKTGKVEQISAEDIDLINSQKFVGTWGLRVFTKGGVLHRFTGFRDSEHEKLGKFIKAAYSQEMVEKEMCVKGWNWGTARFMGSVLSFDKESKTIFEVPLSHVSQCVTGKNEVTLEFHQNDDAPVGLLEMRFHIPAVESAEEDPVDKFHQNVMSKASVISASGESIAIFREIQILTPRGRYDIKIFSTFFQLHGKTFDYKIPMDSVLRLFMLPHKDSRQMFFVLSLDPPIKQGQTRYHYLVLLFAPDEETTIELPFSEAELRDKYEGKLEKEISGPVYEVMGKVMKVLIGRKITGPGNFIGHSGTAAVGCSFKAAAGYLYPLERGFIYIHKPPLHIRFEEISSVNFARSGGSTRSFDFEVTLKNGTVHIFSSIEKEEYAKLFDYITQKKLHVSNMGKDKSGYKDVDFGDSDNENEPDAYLARLKAEAREKEEDDDDGDSDEESTDEDFKPNENESDVAEEYDSNVESDSDDDSDASGGGGDSDGAKKKKEKKSEKKEKKEKKHKEKERTKKPSKKKKDSGKPKRATTAFMLWLNDTRESIKRENPGIKVTEIAKKGGEMWKELKDKSKWEDAAAKDKQRYHDEMRNYKPEAGGDSDNEKGGKSSKKRKTEPSPSKKANTSGSGFKSKEYISDDDSTSSDDEKDNEPAKKKSKPPSDGDAKKKKAKSESEPEESEEDSNASDEDEEDEASD
B1 was tested, and the binding [1] was “binds” and the binding [3] was “no binding”.

B2: importin karyopherin α3 (Kap-α3) (protein, UniProt Q9V455 1-514)
chain: MTSMEQNRLQNFKNKGKDQDEMRRRRNEVTVELRKNKREETILKRRNVPNLDSNTDEEEQLSSSIDLKKLAKAAADATKPEQQLAAVQAARKLLSSDKNPPINDLIQSDILPILVECLKQHNHTMLQFEAAWALTNIASGTSAQTNEVVAAGAVPLFLQLLNSPAPNVCEQAVWALGNIIGDGPLLRDFVIKHGVVQPLLSFIKPDIPITFLRNVTWVIVNLCRNKDPAPPTATIHEILPALNVLIHHTDTNILVDTVWAISYLTDGGNDQIQMVIESGVVPKLIPLLGNSEVKVQTAALRAVGNIVTGSDEQTQVVLNYDALSYFPGLLSHPKEKIRKEAVWFLSNITAGNQSQVQAVINVGLLPKIIENLSKGEFQTQKEAAWAISNLTISGNREQVFTLIKEGVIPPFCDLLSCQDTQVINVVLDGLNNMLKVADSHVEAVANCIEECEGLAKIERLQSHENVEIYKLAYEIIDQYFTDEGEQTNMAPTSDGAQYNFDPHADRLTMNSFNF
In the case of B2, the binding [1] is reported as “binds”.

B3: nucleolar protein Modulo (protein, UniProt P13469 1-542)
chain: MAQKKAVTVKGKKATNGEEKPLAKRVTKSTKVQEEETVVPQSPSKKSRKQPVKEVPQFSEEDESDVEEQNDEQPGDDSDFETEEAAGLIDDEAEEDEEYNSDDEEDDDDDELEPGEVSKSEGADEVDESDDDEEAPVEKPVSKKSEKANSEKSEENRGIPKVKVGKIPLGTPKNQIVFVTNLPNEYLHKDLVALFAKFGRLSALQRFTNLNGNKSVLIAFDTSTGAEAVLQAKPKALTLGDNVLSVSQPRNKEENNERTVVVGLIGPNITKDDLKTFFEKVAPVEAVTISSNRLMPRAFVRLASVDDIPKALKLHSTELFSRFITVRRISQESISRTSELTLVVENVGKHESYSSDALEKIFKKFGDVEEIDVVCSKAVLAFVTFKQSDAATKALAQLDGKTVNKFEWKLHRFERSTSGRAILVTNLTSDATEADLRKVFNDSGEIESIIMLGQKAVVKFKDDEGFCKSFLANESIVNNAPIFIEPNSLLKHRLLKKRLAIGQTRAPRKFQKDTKPNFGKKPFNKRPAQENGGKSFVKRARF
B3 was tested, and the binding [1] was “binds” and the binding [2] was “binds”.

B4: CG8223, fly homolog of Hif1/NASP (protein, UniProt Q9I7K6 1-492)
chain: MSAEAEAIVTTATADVSSPSKTVAVEPVAADTTPDNAPAVSTEGSGKAEQERAEKILKGKELFSQGSRNFLVKSYDEAADELSQVCQLYEEVYGELADELGQPLLLYAKALIAMALDENKVIDVPDEAADDDDEDVDDDEEESAEDGAAKKEEKKDTKEAANGASSSNGKELDTIKEGSDEADSTGEAEQAQSDEKPSKKVPTGVDEVSSSNGGGGAAVNDDERPSTSNGEVTASCSNGAAPAVEEEPEEEEGVSGSLQLAWEILEAAAQIFSRQGLSGLPYLAEVQTELANIEFENGILEAAREDYEKALKIHGELPTRNRRALAELHYKIGLTYLMQQLNKEGATALRQSSVLIEEEIAEIKGKDEPSERDRNNMLDLEETKQEILAKIQEIEEMQAQTIAEVRAALDSYIKPMSSGDAAAASSSSSSSANGAASSSSSSSKGAAAASSSTISSSSAKPTDITHLIKRKKPEDPSSEAEALCSPAKRAAV
B4 was tested, and the binding [1] was “no binding” and the binding [2] was “no binding”.

Reference: publication PMC4797270
